Patent publication US20260243776A1, “A METHOD FOR DETECTING PROTEIN TARGETS OF AN ENZYME USING A BIOTIN LIGASE” (Leibniz-Institut für Alternsforschung - …, priority 2022, published 2026)
Results are given in words; binding and its absence hold for the method and conditions named. Some entries that bind do so weakly or less than the wild type. Tags and fused reporters may be left off the sequences shown.

Target: BRD4 (human) (UniProt O60885)
Assay: proximity biotinylation in HEK293T cells treated with the PROTAC KB02-JQ1 (10 uM) and MG132; recruitment induced by the small molecule

binding: binds
B1: PSMA4-miniTurbo-FLAG (protein)
chain: MSRRYDSRTTIFSPEGRLYQVEYAMEAIGHAGTCLGILANDGVLLAAERRNIHKLLDEVFFSEKIYKLNEDMACSVAGITSDANVLTNELRLIAQRYLLQYQEPIPCEQLVTALCDIKQAYTQFGGKRPFGVSLLYIGWDKHYGFQLYQSDPSGNYGGWKATCIGNNSAAAVSMLKQDYKEGEMTLKSALALAIKVLNKTMDVSKLSAEKVEIATLTRENGKTVIRVLKQKEVEQLIKKHEEEEAKAEREKKEKEQKEKDKYPTFLYKVVDSRMASIPLLNAKQILGQLDGGSVAVLPVVDSTNQYLLDRIGELKSGDACIAEYQQAGRGSRGRKWFSPFGANLYLSMFWRLKRGPAAIGLGPVIGIVMAEALRKLGADKVRVKWPNDLYLQDRKLAGILVELAGITGDAAQIVIGAGINVAMRRVEESVVNQGWITLQEAGINLDRNTLAAMLIRELRAALELFEQEGLAPYLSRWEKLDNFINRPVKLIIGDKEIFGISRGIDKQGALLLEQDGVIKPWMGGEISLRSAEKLQDDYKDDDDK
